Laboratory results as given in the supplement of paper PMC10849652.
The other results are listed elsewhere or left out.

By UniProt entry, the sequences of proteins in these tests, tags left out. Where a name states a change or a piece, a line headed by the entry shows the natural chain unless it says otherwise.
UniProt Q9NPL8: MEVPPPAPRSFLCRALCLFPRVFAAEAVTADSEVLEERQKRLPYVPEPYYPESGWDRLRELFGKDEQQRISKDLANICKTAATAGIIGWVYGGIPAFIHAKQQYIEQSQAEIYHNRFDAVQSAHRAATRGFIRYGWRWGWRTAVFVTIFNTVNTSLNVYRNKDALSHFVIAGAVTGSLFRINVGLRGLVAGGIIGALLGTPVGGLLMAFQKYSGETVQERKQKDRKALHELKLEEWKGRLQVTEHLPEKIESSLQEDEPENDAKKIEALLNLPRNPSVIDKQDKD
UniProt P07996: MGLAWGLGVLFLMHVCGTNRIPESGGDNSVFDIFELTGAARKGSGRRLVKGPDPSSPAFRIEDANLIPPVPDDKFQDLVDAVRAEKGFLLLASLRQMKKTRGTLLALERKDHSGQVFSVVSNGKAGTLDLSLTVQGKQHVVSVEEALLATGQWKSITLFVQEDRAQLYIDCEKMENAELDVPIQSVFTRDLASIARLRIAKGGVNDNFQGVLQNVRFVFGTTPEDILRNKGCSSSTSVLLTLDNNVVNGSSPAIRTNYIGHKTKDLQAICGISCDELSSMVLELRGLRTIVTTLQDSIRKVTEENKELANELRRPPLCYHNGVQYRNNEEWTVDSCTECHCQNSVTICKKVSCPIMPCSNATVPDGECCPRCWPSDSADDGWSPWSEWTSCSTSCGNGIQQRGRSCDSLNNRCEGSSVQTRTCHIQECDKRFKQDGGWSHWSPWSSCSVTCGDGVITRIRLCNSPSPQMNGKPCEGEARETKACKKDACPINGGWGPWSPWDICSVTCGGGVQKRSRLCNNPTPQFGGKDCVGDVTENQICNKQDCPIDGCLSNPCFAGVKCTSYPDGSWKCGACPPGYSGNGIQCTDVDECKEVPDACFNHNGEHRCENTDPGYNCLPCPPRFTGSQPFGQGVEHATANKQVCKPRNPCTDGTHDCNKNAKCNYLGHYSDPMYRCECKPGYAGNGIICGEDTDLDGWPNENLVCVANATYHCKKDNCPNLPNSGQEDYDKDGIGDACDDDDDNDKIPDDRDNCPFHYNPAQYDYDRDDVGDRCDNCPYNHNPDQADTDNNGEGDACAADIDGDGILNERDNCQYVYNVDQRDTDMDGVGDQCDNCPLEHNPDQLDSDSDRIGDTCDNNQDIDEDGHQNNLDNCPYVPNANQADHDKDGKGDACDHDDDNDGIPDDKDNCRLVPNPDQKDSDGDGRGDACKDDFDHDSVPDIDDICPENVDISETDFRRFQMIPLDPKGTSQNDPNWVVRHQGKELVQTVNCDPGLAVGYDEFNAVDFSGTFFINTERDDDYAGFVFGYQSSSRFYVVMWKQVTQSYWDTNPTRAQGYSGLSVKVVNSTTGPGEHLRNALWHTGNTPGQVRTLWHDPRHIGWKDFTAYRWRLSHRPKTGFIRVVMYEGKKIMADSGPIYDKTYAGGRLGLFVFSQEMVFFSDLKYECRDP
UniProt B5MCY1: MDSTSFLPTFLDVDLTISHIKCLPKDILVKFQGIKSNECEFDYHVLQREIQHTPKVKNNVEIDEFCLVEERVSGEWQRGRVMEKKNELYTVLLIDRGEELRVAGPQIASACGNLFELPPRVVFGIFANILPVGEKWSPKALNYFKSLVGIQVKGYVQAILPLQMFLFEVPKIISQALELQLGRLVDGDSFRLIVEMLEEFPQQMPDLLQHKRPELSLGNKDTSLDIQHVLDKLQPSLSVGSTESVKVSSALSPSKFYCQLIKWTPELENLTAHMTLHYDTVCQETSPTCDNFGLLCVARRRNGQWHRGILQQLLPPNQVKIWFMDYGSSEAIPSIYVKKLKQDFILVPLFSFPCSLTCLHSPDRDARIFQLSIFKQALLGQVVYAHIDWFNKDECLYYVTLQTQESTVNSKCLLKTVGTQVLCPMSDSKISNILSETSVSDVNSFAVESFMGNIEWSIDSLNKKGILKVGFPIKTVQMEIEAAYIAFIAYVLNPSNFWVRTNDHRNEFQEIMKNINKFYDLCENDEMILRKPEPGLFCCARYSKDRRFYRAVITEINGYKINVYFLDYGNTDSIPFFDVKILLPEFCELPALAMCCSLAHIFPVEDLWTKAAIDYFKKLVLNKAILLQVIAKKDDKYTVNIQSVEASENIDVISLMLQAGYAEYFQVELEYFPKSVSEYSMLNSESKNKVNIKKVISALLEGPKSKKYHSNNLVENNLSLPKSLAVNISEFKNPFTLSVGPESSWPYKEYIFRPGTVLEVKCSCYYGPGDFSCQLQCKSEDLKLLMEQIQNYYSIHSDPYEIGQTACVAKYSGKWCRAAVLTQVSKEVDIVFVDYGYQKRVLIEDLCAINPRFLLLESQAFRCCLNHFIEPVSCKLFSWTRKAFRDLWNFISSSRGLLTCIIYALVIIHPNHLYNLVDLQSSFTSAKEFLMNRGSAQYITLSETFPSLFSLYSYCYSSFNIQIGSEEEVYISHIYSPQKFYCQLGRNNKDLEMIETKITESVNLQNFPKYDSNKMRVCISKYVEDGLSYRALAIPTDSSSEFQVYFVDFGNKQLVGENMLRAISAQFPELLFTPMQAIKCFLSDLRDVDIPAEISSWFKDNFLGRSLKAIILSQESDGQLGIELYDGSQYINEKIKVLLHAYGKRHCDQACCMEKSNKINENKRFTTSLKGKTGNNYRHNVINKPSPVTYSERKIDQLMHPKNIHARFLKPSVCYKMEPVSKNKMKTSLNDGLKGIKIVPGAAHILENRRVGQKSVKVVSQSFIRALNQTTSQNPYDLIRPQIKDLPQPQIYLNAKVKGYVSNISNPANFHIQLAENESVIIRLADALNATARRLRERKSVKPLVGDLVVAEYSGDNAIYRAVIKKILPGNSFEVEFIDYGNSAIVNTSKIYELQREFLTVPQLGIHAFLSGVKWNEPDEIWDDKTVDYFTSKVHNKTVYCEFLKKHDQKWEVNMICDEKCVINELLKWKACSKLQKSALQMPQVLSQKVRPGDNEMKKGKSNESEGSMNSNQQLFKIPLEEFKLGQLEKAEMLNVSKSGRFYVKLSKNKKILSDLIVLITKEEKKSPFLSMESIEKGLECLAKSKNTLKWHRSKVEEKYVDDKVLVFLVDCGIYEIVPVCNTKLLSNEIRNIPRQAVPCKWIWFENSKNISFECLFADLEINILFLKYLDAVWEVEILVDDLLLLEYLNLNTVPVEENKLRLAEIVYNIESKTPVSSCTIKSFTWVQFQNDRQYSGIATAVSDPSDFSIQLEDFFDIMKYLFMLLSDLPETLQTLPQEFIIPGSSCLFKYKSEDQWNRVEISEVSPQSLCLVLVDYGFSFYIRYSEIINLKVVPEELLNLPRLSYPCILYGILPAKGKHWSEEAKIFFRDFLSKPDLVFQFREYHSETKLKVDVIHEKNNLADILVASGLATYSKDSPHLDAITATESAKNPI
UniProt Q9Y5J6: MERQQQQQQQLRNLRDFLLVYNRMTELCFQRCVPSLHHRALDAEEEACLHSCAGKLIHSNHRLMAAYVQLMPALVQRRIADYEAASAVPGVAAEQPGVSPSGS
UniProt P01137, whole entry, looked up: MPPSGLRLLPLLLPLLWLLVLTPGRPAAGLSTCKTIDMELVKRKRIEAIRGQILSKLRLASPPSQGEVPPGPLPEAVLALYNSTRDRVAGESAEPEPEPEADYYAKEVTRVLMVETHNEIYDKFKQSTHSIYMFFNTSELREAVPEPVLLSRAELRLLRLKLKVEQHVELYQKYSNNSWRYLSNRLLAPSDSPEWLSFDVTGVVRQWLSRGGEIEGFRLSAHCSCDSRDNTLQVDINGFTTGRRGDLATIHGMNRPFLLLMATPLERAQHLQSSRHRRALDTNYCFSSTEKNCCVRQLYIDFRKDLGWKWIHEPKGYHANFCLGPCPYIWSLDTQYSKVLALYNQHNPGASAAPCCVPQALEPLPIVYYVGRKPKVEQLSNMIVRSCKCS
UniProt Q9Y5L4: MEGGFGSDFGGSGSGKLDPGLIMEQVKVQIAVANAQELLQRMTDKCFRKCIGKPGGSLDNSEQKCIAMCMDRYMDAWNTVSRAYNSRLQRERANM
UniProt Q5VWP2: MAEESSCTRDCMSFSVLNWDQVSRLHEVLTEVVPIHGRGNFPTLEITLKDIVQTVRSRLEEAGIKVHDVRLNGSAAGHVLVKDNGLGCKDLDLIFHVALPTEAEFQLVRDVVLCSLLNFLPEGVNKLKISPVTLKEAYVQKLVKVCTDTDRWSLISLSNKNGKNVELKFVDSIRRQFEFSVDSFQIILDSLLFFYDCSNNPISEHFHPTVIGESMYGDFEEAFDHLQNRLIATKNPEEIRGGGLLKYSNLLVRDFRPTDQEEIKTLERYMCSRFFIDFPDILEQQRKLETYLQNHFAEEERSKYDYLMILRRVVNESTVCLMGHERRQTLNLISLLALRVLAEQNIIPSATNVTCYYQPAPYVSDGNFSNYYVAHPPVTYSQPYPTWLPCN
UniProt P01033: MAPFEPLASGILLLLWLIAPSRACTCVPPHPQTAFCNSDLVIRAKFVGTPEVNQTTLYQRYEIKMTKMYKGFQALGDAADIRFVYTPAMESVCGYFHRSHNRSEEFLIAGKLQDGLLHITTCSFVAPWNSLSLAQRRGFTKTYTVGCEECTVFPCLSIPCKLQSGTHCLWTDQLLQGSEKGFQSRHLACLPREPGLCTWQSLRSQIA
UniProt Q9BZK7: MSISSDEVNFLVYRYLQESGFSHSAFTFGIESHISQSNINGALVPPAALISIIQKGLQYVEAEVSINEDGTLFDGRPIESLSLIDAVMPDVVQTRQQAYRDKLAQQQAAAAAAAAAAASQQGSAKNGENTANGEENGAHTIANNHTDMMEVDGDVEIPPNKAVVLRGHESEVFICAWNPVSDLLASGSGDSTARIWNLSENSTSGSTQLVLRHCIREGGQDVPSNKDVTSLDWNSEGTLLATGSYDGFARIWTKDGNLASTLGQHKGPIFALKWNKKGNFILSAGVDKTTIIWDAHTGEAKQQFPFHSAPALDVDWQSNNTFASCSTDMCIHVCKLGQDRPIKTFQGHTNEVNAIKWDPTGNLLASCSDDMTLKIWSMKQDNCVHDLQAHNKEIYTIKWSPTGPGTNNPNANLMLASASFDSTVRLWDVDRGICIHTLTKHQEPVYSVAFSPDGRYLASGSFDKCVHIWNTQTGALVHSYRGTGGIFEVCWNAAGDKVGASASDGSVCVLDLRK
UniProt Q9UP52: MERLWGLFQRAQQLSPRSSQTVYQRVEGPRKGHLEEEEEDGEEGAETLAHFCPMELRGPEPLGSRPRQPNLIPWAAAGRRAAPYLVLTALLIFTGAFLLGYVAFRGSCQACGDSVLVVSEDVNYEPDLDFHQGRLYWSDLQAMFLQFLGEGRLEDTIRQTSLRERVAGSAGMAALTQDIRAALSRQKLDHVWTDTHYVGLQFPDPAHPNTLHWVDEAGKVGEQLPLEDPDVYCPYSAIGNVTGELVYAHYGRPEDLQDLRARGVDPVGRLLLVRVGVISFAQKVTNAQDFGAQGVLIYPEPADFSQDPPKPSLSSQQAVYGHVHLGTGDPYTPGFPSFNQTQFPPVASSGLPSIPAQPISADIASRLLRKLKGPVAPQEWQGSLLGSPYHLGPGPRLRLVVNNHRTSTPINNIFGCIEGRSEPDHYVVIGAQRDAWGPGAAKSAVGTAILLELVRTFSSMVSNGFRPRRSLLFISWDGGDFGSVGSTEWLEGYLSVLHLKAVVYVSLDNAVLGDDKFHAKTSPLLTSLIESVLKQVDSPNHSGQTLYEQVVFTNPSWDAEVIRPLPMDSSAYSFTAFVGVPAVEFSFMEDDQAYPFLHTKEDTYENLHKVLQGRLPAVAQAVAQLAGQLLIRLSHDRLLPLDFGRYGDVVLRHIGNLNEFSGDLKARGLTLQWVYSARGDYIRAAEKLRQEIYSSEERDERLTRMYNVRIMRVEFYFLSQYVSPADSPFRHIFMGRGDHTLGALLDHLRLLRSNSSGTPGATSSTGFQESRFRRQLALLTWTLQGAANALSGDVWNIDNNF
UniProt Q9HA65: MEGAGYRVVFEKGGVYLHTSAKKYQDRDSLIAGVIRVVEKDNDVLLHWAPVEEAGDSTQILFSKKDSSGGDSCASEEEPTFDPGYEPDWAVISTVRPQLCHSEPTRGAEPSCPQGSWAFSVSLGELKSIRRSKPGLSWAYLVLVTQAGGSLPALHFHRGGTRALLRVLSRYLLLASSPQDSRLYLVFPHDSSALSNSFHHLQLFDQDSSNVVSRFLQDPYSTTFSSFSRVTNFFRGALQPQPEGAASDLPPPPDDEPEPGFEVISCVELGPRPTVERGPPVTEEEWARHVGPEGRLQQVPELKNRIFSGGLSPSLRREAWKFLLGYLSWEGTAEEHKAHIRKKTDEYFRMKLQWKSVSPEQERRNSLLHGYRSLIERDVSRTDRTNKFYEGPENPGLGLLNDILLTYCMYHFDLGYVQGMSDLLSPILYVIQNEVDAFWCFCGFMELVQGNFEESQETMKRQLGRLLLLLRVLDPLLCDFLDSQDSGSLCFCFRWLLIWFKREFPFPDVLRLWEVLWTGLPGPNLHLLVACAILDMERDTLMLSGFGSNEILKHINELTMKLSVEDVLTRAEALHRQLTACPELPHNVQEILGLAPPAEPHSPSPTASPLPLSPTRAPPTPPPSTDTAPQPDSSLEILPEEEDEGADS

The targets below were run with O=C(CCCCCCC(=O)Nc1ccccc1)NO [vorinostat] (assay: log2 fold change, soluble protein after heating vs DMSO (PISA); higher = thermal stabilisation; K562 cells, 10 uM, 30 min; active = over 0.2 and 3.5 SD of the protein, either way, in both replicates (recomputed)).
Outline: (§1)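 K562 cells (2×10^6 cells/mL) were treated with 10 μM compound for 30 min, and aliquots were heated for 3 min over 48°C-58°C. Pooled aliquots were extracted in PBS with 0.5% NP-40 at 4°C, and the supernatant after 21,000xg for 90 min was measured by TMTpro 16plex LC-MS/MS with channel sums equalised. Reported thermal stability, relative to control samples and from duplicates, is a log2 fold change.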

log2 fold change, inactive:
TBC1D14 (UniProt Q9P2M4) -0.104
TLCD3A (UniProt Q8TBR7) -0.051
TGOLN2 isoform 7 (UniProt O43493) -0.045
TIMMDC1 (UniProt Q9NPL8) -0.099
THOC2 (UniProt Q8NI27) 0.002
TFPI (UniProt P10646) -0.158
THYN1 (UniProt Q9P016) 0.011
THRAP3 (UniProt Q9Y2W1) 0.021
TK1 (UniProt K7ERV3) -0.003
THBS1 (UniProt P07996) 0.156
TIMM22 (UniProt Q9Y584) -0.057
TDRD15 (UniProt B5MCY1) -0.119
TIMM10B (UniProt Q9Y5J6) -0.202
TBK1 (UniProt Q9UHD2) -0.025
TGFB1 (UniProt P01137) -0.06
THUMPD1 (UniProt Q9NXG2) -0.002
TIMM13 (UniProt Q9Y5L4) 0.031
TENT5C (UniProt Q5VWP2) -0.104
TCF12 isoform 3 (UniProt Q99081) 0.144
THOC6 (UniProt Q86W42) 0.018
TLCD1 (UniProt Q96CP7) -0.018
TBC1D24 (UniProt Q9ULP9) 0.291
TESC (UniProt Q96BS2) 0.04
TBC1D4 (UniProt O60343) 0.031
TEX2 isoform 2 (UniProt Q8IWB9) 0.035
TIMP1 (UniProt P01033) -0.073
TGDS (UniProt O95455) 0.063
TIMM17B (UniProt O60830) -0.092
TIMM9 (UniProt Q9Y5J7) -0.11
TBL1XR1 (UniProt Q9BZK7) -0.022
TGFBI (UniProt Q15582) 0.309
TFR2 (UniProt Q9UP52) 0.002
TBC1D17 (UniProt Q9HA65) 0.054
THOC3 (UniProt Q96J01) 0.014

These targets were tested with O=C(CCCCCCNC(=O)c1cnc(N(c2ccccc2)c2ccccc2Cl)nc1)NO [citarinostat] in the same assay as above.
Outline: as §1

log2 fold change, inactive:
TLCD3A (UniProt Q8TBR7) 0.014
TGOLN2 isoform 7 (UniProt O43493) 0
TIMMDC1 (UniProt Q9NPL8) 0.011
THOC2 (UniProt Q8NI27) 0.042
THYN1 (UniProt Q9P016) 0.008
THRAP3 (UniProt Q9Y2W1) 0.005
TFDP2 (UniProt Q14188) 0.077
TCOF1 isoform 6 (UniProt Q13428) 0.18
THBS1 (UniProt P07996) -0.079
TIMM22 (UniProt Q9Y584) 0.006
TDRD15 (UniProt B5MCY1) -0.537
TIMM10B (UniProt Q9Y5J6) 0.074
TBK1 (UniProt Q9UHD2) 0.064
TKT, A0A0B4J1R6 -0.072
TGFB1 (UniProt P01137) 0.029
THUMPD1 (UniProt Q9NXG2) 0.054
TGS1 (UniProt Q96RS0) -0.039
TIMM13 (UniProt Q9Y5L4) 0.117
TENT5C (UniProt Q5VWP2) 0.144
TCF12 isoform 3 (UniProt Q99081) 0.064
THOC6 (UniProt Q86W42) 0.042
TLCD1 (UniProt Q96CP7) -0.067
TBC1D24 (UniProt Q9ULP9) 0.016
TESC (UniProt Q96BS2) 0.025
TBC1D4 (UniProt O60343) -0.004
TIMP1 (UniProt P01033) 0.018
TBC1D2B (UniProt Q9UPU7) 0.067
TIMM17B (UniProt O60830) 0.029
TIMM9 (UniProt Q9Y5J7) 0.029
TBL1XR1 (UniProt Q9BZK7) 0
TGFBI (UniProt Q15582) -0.056
TFR2 (UniProt Q9UP52) 0.033
TBC1D17 (UniProt Q9HA65) 0.131
THOC3 (UniProt Q96J01) 0.027

What follows are targets tested with O=C(O)c1ccc2c(c1)nc(Nc1cccc(Cl)c1)c1ccncc12 [silmitasertib] in the same assay as above.
Outline: as §1

log2 fold change, inactive:
TBC1D14 (UniProt Q9P2M4) 0.144
TGOLN2 isoform 7 (UniProt O43493) 0.02
TIMMDC1 (UniProt Q9NPL8) -0.042
THOC2 (UniProt Q8NI27) 0.093
TFPI (UniProt P10646) 0.127
THYN1 (UniProt Q9P016) -0.011
THRAP3 (UniProt Q9Y2W1) -0.169
TK1 (UniProt K7ERV3) -0.039
TFDP2 (UniProt Q14188) -0.035
TCOF1 isoform 6 (UniProt Q13428) 0.028
THBS1 (UniProt P07996) 0.242
TIMM22 (UniProt Q9Y584) -0.031
TDRD15 (UniProt B5MCY1) 0.061
TIMM10B (UniProt Q9Y5J6) 0.034
TBK1 (UniProt Q9UHD2) 0.057
TKT, A0A0B4J1R6 0.233
TGFB1 (UniProt P01137) 0.016
THUMPD1 (UniProt Q9NXG2) -0.03
TGS1 (UniProt Q96RS0) -0.028
TIMM13 (UniProt Q9Y5L4) -0.016
TENT5C (UniProt Q5VWP2) -0.038
TCF12 isoform 3 (UniProt Q99081) -0.002
THOC6 (UniProt Q86W42) -0.007
TLCD1 (UniProt Q96CP7) 0.056
TBC1D24 (UniProt Q9ULP9) -0.135
TESC (UniProt Q96BS2) 0.318
TBC1D4 (UniProt O60343) 0.057
TEX2 isoform 2 (UniProt Q8IWB9) 0.431
TIMP1 (UniProt P01033) 0.086
TBC1D2B (UniProt Q9UPU7) -0.041
TGDS (UniProt O95455) -0.01
TIMM17B (UniProt O60830) 0.037
TIMM9 (UniProt Q9Y5J7) -0.01
TBL1XR1 (UniProt Q9BZK7) -0.028
TGFBI (UniProt Q15582) 0.114
TFR2 (UniProt Q9UP52) -0.001
TBC1D17 (UniProt Q9HA65) 0.053
THOC3 (UniProt Q96J01) -0.018
